{
  "sequences": {"note": "Sequences of proteins named here, by UniProt entry; tags and fusion partners are left off. A change or cut given only in a name is not applied to a line headed by its entry.", "UniProt O85041": "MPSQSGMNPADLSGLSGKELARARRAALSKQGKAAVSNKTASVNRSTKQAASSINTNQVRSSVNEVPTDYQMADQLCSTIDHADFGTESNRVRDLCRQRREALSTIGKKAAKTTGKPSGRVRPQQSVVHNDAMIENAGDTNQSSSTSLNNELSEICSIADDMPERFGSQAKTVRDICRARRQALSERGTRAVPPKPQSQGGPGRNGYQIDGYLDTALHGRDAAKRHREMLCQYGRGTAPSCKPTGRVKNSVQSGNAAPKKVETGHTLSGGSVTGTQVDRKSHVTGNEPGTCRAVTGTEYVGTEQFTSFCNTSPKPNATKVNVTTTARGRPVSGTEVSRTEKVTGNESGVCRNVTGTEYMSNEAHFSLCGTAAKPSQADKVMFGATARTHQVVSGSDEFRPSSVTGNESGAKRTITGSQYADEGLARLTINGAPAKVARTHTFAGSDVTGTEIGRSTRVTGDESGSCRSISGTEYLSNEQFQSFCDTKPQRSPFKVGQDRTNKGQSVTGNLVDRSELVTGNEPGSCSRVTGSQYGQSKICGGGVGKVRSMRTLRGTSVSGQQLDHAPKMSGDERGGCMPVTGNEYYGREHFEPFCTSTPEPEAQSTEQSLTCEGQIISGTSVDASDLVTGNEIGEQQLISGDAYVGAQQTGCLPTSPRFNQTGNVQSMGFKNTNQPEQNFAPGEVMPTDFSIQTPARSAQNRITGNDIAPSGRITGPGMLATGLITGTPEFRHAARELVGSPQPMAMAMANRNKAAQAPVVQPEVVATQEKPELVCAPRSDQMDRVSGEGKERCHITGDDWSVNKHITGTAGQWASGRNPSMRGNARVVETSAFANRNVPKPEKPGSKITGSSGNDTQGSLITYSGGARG"},
  "source": "paper PMC7595155",
  "biological_target": "recombinant empty α-carboxysome shell produced from the synthetic cso-2 operon (CsoS2, CsoS4A, CsoS4B, CsoS1C, CsoS1A, CsoS1B, CsoS1D) (Halothiobacillus neapolitanus) (UniProt O85041)",
  "experiment": "co-sedimentation; proteins co-expressed in E. coli; 50,000 × g pellet of the lysate resuspended in TEMB buffer (5 mM Tris-HCl pH 8.0, 1 mM EDTA, 10 mM MgCl2, 20 mM NaHCO3), sucrose gradient (10-30% or 10-50% w/v), 105,000 × g for 30 min; fractions read by SDS-PAGE, immunoblot (anti-His, anti-CsoS1) and mass spectrometry",
  "note": "No constants are given. Whether binding was seen depends on the method and setting. Binding seen in cells or lysates may run through a third protein. Some results given as binding are weak or reduced against the parent protein; the word gives no strength.",
  "data": [
    {"binder": "CsoSCA, β-carbonic anhydrase of the α-carboxysome, Halothiobacillus neapolitanus (enzyme, UniProt O85042 1-514) MNTRNTRSKQRAPFGVSSSVKPRLDLIEQAPNPAYDRHPACITLPERTCRHPLTDLEANEQLGRCEDSVKNRFDRVIPFLQVVAGIPLGLDYVTRVQELAQSSLGHTLPEELLKDNWISGHNLKGIFGYATAKALTAATEQFSRKIMSEKDDSASAIGFFLDCGFHAVDISPCADGRLKGLLPYILRLPLTAFTYRKAYAGSMFDIEDDLAQWEKNELRRYREGVPNTADQPTRYLKIAVYHFSTSDPTHSGCAAHGSNDRAALEAALTQLMKFREAVENAHCCGASIDILLIGVDTDTDAIRVHIPDSKGFLNPYRYVDNTVTYAQTLHLAPDEARVIIHEAILNANRSDGWAKGNGVASEGMRRFIGQLLINNLSQIDYVVNRHGGRYPPNDIGHAERYISVGDGFDEVQIRNLAYYAHLDTVEENAIDVDVGIKIFTKLNLSRGLPIPIAIHYRYDPNVPGSRERTVVKARRIYNAIKERFSSLDEQNLLQFRLSVQAQDIGSPIEEVASA", "values": [
      {"measurement": "binding", "value": "binds"}
    ]}
  ]
}
